Laboratory results published in PMC7083851, “Extended pharmacodynamic responses observed upon PROTAC-mediated degradation of RIPK2” (Communications Biology, 2020).
Where “and” joins values, the source holds several entries; their conditions need not be identical. Identical values can stand only once. Further values from the same series stand in other lists.

Experiment: Blood concentrations after subcutaneous dosing in rat PK/PD studies
Assay type: in vivo
Conditions: for blood concentration, individual rat: 14-day study; for PK, blood concentration, individual rat: 20 mg/kg SC single dose, 7-day study
Procedure: Female CD rats (7–8 weeks old on arrival, Charles River Ltd.) were placed into groups using a randomization schedule based on body weight prior to the study start. All animals were acclimatized for a minimum of one week prior to the experiment commencing. […] PROTAC 4 was dissolved in saline with the pH adjusted to 5.0 with sodium hydroxide (1 M).

CN[C@@H](C)C(=O)N[C@H](C(=O)N1CCC[C@H]1c1nc(C(=O)c2ccc(F)cc2)cs1)C1CCN(C(=O)c2cnc(N3CCN(CCOc4cc5ncnc(Nc6n[nH]c(C)c6C)c5cc4S(=O)(=O)C(C)(C)C)CC3)nc2)CC1 [PROTAC 4]
blood concentration, individual rat (1 mg/kg SC, 0.25 h): 68.1 ng/mL and 18.6 ng/mL and 44.8 ng/mL and 40.1 ng/mL and 110 ng/mL | blood concentration, individual rat (1 mg/kg SC, 0.5 h): 64.2 ng/mL and 59.6 ng/mL and 369 ng/mL and 74.5 ng/mL and 40.1 ng/mL | blood concentration, individual rat (1 mg/kg SC, 1 h): 64.9 ng/mL and 15.9 ng/mL and 32.1 ng/mL and 123 ng/mL and 23 ng/mL | blood concentration, individual rat (1 mg/kg SC, 2 h): 113 ng/mL and 55.4 ng/mL and 131 ng/mL and 67.9 ng/mL and 26.6 ng/mL | blood concentration, individual rat (1 mg/kg SC, 4 h): 85.1 ng/mL and 39.6 ng/mL and 149 ng/mL and 59.9 ng/mL and 25.8 ng/mL | blood concentration, individual rat (1 mg/kg SC, 8 h): 33.2 ng/mL and 5.06 ng/mL and 25.8 ng/mL and 11.3 ng/mL and 14.9 ng/mL | blood concentration, individual rat (1 mg/kg SC, 24 h): 5.48 ng/mL and 5.45 ng/mL and 7.88 ng/mL and 6.3 ng/mL | blood concentration, individual rat (1 mg/kg SC, 72 h): 1.45 ng/mL | blood concentration, individual rat (5 mg/kg SC, 0.25 h): 173 ng/mL and 47.7 ng/mL | blood concentration, individual rat (5 mg/kg SC, 0.5 h): 43 ng/mL and 52.6 ng/mL and 142 ng/mL and 113 ng/mL and 84.2 ng/mL | blood concentration, individual rat (5 mg/kg SC, 1 h): 33 ng/mL and 208 ng/mL and 129 ng/mL and 125 ng/mL and 37.6 ng/mL | blood concentration, individual rat (5 mg/kg SC, 2 h): 110 ng/mL and 164 ng/mL and 40.5 ng/mL and 87.3 ng/mL and 102 ng/mL | blood concentration, individual rat (5 mg/kg SC, 4 h): 108 ng/mL and 118 ng/mL and 158 ng/mL and 74.2 ng/mL and 59.6 ng/mL | blood concentration, individual rat (5 mg/kg SC, 8 h): 152 ng/mL and 148 ng/mL and 114 ng/mL and 108 ng/mL and 43.4 ng/mL | blood concentration, individual rat (5 mg/kg SC, 24 h): 30.8 ng/mL and 42.6 ng/mL and 41.8 ng/mL and 41.3 ng/mL | blood concentration, individual rat (5 mg/kg SC, 168 h): 3 ng/mL and 3.99 ng/mL and 3.05 ng/mL and 3.69 ng/mL | PK, blood concentration, individual rat (1 h): 131 ng/mL | PK, blood concentration, individual rat (8 h): 262 ng/mL
